Measured values: publication PMC6328465
Results are given in words; binding and its absence hold for the method and conditions named. Binding seen in cells or lysates may run through a third protein. Some results given as binding are weak or reduced against the parent protein; the word gives no strength.

Protein sequences, listed by entry. Tags and fused reporters are not part of them.
UniProt Q13574: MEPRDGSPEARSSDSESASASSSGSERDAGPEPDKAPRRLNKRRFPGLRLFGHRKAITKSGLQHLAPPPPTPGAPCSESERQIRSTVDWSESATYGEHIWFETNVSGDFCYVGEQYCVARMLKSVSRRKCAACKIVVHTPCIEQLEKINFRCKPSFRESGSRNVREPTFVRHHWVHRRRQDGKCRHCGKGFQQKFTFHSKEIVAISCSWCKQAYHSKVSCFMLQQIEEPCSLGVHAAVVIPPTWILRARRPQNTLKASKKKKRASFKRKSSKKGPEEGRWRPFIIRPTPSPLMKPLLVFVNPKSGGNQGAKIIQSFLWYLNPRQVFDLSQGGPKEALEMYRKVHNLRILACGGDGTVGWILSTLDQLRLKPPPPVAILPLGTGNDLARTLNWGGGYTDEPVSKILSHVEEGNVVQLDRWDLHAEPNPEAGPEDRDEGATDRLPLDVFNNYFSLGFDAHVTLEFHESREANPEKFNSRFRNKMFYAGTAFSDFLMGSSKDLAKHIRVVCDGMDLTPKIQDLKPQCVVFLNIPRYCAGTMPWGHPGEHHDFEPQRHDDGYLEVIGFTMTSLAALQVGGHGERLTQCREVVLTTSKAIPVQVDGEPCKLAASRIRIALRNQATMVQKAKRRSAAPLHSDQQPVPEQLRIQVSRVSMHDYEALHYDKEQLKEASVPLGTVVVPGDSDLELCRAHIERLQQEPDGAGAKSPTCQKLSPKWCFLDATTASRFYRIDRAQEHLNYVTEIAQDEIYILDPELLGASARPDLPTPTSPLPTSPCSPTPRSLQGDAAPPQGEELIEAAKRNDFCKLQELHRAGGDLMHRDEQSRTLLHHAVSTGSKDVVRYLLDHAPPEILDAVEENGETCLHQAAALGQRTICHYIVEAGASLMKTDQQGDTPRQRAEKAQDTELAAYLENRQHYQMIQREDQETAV
UniProt P27361: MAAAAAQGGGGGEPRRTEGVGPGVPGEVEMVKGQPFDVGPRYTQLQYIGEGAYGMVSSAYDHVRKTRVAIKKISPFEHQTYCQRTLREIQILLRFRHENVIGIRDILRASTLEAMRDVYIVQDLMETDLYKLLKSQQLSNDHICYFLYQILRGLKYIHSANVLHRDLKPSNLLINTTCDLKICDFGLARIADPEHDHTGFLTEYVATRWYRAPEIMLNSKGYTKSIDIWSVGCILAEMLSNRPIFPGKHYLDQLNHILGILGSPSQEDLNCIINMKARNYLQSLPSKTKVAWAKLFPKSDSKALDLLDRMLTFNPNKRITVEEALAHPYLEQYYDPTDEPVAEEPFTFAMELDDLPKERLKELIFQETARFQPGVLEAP
UniProt P28482: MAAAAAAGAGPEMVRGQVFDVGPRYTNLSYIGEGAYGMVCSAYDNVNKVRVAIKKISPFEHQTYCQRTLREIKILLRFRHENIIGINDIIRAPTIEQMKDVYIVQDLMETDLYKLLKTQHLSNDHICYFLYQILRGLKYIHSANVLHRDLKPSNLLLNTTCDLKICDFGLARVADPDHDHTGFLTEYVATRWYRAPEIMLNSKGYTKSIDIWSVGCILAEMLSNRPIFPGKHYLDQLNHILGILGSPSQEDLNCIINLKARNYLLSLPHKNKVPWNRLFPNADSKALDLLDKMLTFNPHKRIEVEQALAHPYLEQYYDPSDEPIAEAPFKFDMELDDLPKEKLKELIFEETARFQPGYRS

Biological target: 3 × FLAG-DGKZ (diacylglycerol kinase zeta) (UniProt Q13574)
Test: co-IP; 3xFLAG-DGKZ immunoprecipitated from HOS cells on anti-FLAG magnetic beads, eluted by 3xFLAG peptide, SDS-PAGE and immunoblotting

## ERK1 (from UniProt P27361 1-379) (enzyme)
  binding: binds

## ERK2 (from UniProt P28482 1-360) (enzyme)
  binding: binds
